Results are given in words; binding and its absence hold for the method and conditions named. Binding seen in cells or lysates may run through a third protein. Some binding calls cover weakened binding; strength is not graded here. Sequences can lack the tags named with a protein.

Protein sequences, listed by entry. Tags and fused reporters are not part of them.
UniProt P15056: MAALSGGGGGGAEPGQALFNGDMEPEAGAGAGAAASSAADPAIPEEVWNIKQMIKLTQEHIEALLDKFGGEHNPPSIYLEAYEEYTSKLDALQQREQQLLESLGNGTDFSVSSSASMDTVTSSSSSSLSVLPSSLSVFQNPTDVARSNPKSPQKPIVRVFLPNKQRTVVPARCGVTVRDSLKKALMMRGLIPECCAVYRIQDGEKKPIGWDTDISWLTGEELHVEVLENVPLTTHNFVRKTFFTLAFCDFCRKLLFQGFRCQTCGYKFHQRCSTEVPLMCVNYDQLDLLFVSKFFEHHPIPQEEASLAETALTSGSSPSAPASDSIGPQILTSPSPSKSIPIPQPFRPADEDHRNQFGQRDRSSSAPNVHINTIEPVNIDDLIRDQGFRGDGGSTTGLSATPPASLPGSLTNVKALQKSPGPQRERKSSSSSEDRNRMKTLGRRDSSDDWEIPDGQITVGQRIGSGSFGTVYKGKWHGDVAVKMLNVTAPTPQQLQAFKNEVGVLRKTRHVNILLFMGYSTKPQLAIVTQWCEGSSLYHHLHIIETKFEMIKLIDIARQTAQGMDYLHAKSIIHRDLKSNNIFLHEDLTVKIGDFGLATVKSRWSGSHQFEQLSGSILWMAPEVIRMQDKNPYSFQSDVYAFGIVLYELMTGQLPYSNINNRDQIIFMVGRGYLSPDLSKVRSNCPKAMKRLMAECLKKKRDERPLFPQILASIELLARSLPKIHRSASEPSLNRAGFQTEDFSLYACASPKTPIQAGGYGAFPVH

For the assay, the target named is B-Raf (Flag-B-Raf) (UniProt P15056). Kind of assay: co-IP; HA-HO-1 co-transfected with or without Flag-B-Raf into HEK293T cells; immunoprecipitated with anti-Flag antibody, immunoblotted with antibodies against HA and Flag. For orientation: A western blot detects proteins with antibodies after separation by electrophoresis.

B1: Heme oxygenase 1 (HA-HO-1) (enzyme, UniProt P09601 1-288)
chain: MERPQPDSMPQDLSEALKEATKEVHTQAENAEFMRNFQKGQVTRDGFKLVMASLYHIYVALEEEIERNKESPVFAPVYFPEELHRKAALEQDLAFWYGPRWQEVIPYTPAMQRYVKRLHEVGRTEPELLVAHAYTRYLGDLSGGQVLKKIAQKALDLPSSGEGLAFFTFPNIASATKFKQLYRSRMNSLEMTPAVRQRVIEEAKTAFLLNIQLFEELQELLTHDTKDQSPSRAPGLRQRASNKVQDSAPVETPRGKPPLNTRSQAPLLRWVLTLSFLVATVAVGLYAM
On to B1, for which the binding entry is given as “binds”.

The values are drawn from article PMC6329143.
